The supplement of paper PMC10849652
Some of the results follow.

Sequences of proteins named here, by UniProt entry; tags and fusion partners are left off. A change or cut given only in a name is not applied to a line headed by its entry.
UniProt Q92859: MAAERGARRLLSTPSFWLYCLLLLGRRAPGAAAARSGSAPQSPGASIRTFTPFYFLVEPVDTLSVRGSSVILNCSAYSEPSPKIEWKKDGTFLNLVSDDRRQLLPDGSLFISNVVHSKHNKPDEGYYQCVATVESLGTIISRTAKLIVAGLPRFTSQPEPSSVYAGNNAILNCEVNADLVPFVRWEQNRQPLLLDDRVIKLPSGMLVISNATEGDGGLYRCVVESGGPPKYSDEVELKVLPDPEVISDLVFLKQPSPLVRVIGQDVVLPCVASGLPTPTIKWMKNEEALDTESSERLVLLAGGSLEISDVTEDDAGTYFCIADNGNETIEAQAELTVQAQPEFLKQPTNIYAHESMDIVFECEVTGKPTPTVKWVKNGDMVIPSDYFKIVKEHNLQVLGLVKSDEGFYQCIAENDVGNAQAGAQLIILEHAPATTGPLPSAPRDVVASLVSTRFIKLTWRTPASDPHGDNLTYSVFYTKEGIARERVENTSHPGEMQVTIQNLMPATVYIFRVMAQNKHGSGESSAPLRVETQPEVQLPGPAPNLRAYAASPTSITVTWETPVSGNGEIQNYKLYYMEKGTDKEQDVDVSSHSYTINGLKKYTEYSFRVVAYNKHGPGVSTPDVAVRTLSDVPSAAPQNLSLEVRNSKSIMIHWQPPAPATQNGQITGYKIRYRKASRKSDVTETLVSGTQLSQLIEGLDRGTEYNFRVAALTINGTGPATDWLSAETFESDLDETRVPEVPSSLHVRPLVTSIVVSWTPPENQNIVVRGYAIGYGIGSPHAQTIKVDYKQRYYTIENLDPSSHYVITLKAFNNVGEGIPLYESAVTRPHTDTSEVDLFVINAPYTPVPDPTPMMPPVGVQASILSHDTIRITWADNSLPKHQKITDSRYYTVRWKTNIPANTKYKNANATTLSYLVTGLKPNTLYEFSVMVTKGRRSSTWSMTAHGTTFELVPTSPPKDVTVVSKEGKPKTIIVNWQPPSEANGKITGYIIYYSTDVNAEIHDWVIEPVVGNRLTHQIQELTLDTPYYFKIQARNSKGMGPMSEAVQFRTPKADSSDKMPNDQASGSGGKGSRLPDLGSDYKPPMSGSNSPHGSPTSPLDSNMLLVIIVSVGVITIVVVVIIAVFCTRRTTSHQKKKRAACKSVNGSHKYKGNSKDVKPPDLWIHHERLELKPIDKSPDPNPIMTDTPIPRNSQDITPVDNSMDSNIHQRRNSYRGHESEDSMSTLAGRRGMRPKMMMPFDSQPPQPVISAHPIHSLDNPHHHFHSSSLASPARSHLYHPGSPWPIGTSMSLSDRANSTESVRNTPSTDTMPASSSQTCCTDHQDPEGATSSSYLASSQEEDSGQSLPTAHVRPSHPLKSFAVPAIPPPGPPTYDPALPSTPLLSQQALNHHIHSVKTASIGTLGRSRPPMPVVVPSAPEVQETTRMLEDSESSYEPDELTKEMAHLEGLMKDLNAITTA
UniProt Q9NV92: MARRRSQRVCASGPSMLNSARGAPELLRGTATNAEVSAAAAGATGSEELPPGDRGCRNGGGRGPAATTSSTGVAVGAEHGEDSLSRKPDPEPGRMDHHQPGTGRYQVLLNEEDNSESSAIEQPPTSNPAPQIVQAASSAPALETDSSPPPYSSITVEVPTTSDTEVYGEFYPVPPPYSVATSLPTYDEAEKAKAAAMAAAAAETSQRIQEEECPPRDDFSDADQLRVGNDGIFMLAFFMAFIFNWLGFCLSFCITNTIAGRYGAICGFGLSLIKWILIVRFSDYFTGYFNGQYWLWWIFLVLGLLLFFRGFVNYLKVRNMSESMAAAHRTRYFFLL
UniProt Q92692, whole entry, looked up: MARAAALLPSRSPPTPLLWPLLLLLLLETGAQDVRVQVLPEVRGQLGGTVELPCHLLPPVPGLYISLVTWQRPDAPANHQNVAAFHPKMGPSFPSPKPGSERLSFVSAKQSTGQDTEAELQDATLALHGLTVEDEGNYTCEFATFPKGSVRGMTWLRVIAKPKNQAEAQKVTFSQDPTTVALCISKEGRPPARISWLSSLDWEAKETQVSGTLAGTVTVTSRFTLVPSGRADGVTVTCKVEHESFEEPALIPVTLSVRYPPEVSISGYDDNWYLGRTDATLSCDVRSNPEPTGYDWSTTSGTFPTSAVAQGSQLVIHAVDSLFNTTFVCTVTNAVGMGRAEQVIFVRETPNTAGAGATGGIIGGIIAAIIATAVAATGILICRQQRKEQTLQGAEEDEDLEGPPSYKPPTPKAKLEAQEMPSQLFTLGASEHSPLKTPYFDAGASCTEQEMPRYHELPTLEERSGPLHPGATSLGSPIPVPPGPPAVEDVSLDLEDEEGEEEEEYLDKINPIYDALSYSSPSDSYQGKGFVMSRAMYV
UniProt Q9BS92: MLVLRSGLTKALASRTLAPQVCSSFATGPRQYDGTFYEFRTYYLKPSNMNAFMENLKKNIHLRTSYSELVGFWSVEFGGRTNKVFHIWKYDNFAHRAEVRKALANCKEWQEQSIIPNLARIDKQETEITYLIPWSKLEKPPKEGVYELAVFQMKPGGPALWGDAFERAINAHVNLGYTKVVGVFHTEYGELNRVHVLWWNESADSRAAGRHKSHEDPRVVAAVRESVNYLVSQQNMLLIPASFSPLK
UniProt O43677, whole entry, looked up: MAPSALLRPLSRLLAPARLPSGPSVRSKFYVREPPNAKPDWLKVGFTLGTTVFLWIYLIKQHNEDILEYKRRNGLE
UniProt Q330K2: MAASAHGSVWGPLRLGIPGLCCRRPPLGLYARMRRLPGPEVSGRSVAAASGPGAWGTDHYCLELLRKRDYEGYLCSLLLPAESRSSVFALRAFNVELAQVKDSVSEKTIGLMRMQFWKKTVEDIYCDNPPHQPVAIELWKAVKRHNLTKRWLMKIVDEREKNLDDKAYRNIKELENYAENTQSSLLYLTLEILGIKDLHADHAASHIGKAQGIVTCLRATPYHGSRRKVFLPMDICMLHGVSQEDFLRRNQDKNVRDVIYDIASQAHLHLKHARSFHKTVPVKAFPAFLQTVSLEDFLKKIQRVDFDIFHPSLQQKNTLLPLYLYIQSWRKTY
UniProt Q9UBE8: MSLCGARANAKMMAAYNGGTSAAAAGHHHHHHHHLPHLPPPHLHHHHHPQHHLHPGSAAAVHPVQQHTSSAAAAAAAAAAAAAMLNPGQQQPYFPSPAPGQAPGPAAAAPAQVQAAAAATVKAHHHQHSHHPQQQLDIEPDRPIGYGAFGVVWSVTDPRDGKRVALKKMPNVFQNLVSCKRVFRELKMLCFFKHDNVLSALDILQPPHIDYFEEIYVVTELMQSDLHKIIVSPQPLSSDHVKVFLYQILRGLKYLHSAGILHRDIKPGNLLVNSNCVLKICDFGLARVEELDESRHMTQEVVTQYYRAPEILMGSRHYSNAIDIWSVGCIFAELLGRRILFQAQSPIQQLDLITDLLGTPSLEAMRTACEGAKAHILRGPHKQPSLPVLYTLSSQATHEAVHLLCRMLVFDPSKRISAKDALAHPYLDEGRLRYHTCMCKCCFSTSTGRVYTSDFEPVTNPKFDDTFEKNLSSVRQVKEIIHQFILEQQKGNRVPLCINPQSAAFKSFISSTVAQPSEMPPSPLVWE
UniProt O75438, whole entry, looked up: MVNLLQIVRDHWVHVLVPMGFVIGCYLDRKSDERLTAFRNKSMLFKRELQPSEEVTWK
UniProt O95139, whole entry, looked up: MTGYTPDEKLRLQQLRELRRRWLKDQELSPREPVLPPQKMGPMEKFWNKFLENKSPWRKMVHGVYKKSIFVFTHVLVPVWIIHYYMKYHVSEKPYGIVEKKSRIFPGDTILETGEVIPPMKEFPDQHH
UniProt P51957: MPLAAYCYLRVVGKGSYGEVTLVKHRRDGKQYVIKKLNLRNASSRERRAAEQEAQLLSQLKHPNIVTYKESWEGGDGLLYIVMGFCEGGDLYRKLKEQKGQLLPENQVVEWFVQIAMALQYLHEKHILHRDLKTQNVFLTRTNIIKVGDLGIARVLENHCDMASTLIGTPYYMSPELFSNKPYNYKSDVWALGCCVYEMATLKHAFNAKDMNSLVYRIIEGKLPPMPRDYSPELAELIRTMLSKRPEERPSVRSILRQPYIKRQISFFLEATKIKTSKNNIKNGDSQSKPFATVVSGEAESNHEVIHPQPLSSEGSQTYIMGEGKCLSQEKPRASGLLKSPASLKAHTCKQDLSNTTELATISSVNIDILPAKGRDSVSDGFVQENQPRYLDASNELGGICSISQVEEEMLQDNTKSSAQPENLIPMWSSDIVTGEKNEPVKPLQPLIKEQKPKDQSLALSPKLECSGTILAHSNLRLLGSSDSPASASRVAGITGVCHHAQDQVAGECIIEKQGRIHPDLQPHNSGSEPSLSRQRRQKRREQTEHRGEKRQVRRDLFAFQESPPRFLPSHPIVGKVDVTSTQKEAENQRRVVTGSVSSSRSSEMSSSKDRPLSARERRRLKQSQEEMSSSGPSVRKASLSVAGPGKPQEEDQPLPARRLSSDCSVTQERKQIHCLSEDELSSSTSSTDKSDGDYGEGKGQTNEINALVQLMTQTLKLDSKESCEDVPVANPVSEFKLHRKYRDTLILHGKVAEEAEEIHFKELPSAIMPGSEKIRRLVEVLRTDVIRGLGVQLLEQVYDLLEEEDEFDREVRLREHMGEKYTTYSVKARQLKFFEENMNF
UniProt Q6P3R8: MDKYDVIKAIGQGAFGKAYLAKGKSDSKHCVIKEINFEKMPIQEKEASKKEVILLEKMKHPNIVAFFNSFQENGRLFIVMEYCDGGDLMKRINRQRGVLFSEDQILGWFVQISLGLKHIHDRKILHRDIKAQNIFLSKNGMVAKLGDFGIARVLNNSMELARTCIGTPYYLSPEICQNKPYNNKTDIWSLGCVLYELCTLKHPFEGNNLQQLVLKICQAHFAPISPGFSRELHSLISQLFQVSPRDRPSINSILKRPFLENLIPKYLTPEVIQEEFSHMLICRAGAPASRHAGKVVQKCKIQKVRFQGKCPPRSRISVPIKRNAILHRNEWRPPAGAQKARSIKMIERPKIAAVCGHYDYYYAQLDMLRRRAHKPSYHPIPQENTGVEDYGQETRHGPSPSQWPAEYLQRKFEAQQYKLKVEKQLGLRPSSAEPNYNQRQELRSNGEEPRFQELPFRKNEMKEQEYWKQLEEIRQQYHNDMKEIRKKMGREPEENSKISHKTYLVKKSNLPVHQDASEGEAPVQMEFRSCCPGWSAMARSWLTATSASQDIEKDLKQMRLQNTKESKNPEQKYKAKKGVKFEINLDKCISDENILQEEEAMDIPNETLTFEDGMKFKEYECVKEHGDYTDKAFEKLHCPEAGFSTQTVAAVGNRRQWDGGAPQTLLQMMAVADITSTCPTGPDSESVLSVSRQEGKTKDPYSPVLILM
UniProt O00217, whole entry, looked up: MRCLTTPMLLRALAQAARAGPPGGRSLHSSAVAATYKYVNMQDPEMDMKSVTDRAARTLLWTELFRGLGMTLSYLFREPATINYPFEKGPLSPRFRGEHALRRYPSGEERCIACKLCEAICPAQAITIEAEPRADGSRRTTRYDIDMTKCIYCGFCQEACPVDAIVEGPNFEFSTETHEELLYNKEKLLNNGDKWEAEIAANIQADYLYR
UniProt Q5JS37: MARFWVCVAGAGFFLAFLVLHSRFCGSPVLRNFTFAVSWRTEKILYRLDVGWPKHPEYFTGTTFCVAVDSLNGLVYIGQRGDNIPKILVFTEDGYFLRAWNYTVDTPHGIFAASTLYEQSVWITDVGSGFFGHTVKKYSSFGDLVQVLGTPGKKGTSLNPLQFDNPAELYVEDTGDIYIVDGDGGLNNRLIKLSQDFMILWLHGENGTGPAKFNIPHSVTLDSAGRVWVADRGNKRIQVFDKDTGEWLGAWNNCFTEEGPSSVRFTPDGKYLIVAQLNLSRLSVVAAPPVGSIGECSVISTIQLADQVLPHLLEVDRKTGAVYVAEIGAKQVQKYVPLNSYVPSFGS
UniProt P17568, whole entry, looked up: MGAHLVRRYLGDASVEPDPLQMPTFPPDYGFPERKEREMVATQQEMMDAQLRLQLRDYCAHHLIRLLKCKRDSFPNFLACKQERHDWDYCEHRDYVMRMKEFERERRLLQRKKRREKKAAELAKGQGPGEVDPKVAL
UniProt Q7Z628: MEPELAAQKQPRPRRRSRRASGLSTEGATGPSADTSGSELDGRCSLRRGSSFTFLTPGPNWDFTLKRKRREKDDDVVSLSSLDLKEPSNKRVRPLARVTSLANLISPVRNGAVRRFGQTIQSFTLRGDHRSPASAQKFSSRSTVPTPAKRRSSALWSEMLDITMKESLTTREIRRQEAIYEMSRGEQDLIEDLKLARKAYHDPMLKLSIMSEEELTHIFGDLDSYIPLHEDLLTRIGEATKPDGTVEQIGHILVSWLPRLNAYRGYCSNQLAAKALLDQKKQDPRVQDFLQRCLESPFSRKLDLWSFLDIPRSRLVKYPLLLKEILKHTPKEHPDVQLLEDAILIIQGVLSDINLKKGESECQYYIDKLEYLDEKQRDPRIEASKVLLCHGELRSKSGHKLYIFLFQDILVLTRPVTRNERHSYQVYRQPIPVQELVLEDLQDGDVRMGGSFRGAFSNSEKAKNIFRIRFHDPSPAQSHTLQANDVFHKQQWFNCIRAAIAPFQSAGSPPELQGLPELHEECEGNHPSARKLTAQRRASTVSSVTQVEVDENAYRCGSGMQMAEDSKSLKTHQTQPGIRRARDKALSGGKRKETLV

Legend:
Assay in all cases: log2 fold change, soluble protein after heating vs DMSO (PISA); higher = thermal stabilisation; K562 lysate, 10 uM; active = over 0.2 and 3.5 SD of the protein, either way, in both replicates (recomputed)
[1] = compound: C1=CC=C(C=C1)[C@H](COC2=CC3=C(C=C2)NC(=O)N3)NC(=O)C4=CC=CN(C4=O)CC5=CC(=C(C=C5)F)F
Method in brief: (§1)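 Dounce homogenisation of K562 pellets in PBS pH 7.4 with 1 mM MgCl2 produced a crude extract, used at 1 mg/mL protein. Exposure to 10 μM compound lasted 30 min, and aliquots were then heated for 3 min across 48°C-58°C, pooled and brought to 0.5% NP-40 at 4°C. The supernatant after 21,000xg for 90 min was quantified by TMTpro 16plex LC-MS/MS with channel sums equalised. Duplicate values are given as log-two fold change in thermal stability relative to solvent controls.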

[2] = compound: CC1=C(SC2=C1C(=N[C@H](C3=NN=C(N32)C)CC(=O)N)C4=CC=C(C=C4)Cl)C
Method in brief: as §1

[3] = compound: c1ccc([C@@H]2C[C@H]2NC2CCNCC2)cc1
Method in brief: as §1

[4] = compound: CC1=C2C(=CC=C1)N=C(N(C2=O)C3=CC=CC=C3C)CN4C=NC5=C(N=CN=C54)N
Method in brief: as §1

[5] = compound: Cc1sc2c(c1C)C(c1ccc(Cl)cc1)=N[C@@H](CC(=O)OC(C)(C)C)c1nnc(C)n1-2
Method in brief: as §1

Measured: log2 fold change

NEO1 (UniProt Q92859)
inactive: [1] 0.093 | [2] 0.185 | [3] 0.117

NFAT5 isoform 5 (UniProt O94916)
inactive: [1] 0.12 | [2] -0.028 | [4] 0.009 | [5] -0.02 | [3] -0.007

NHEJ1 (UniProt Q9H9Q4)
inactive: [1] 0.028 | [2] -0.016 | [4] -0.075 | [5] -0.062 | [3] 0.092

NLRP1 (UniProt Q9C000)
inactive: [5] 0.135

NLRX1 (UniProt Q86UT6)
inactive: [4] -0.082 | [3] 0.047

NDFIP2 (UniProt Q9NV92)
inactive: [3] -0.218

NECTIN2 isoform 2 (UniProt Q92692)
inactive: [4] 0.049 | [5] -0.117 | [3] -0.096

NEURL4 (UniProt Q96JN8)
inactive: [4] 0.018 | [5] 0.072 | [3] 0.043

NEK3 (UniProt P51956)
inactive: [1] -0.015 | [2] -0.053 | [4] -0.247 | [5] 0.066 | [3] -0.097

NIPSNAP3B (UniProt Q9BS92)
inactive: [1] -0.057 | [2] 0.005 | [4] 0.054 | [3] 0.046

NDUFC1 (UniProt O43677)
inactive: [5] -0.042

NDUFAF6 (UniProt Q330K2)
inactive: [1] -0.072 | [2] -0.025 | [5] 0.079 | [3] 0.028

NGLY1 (UniProt Q96IV0)
inactive: [1] -0.011 | [2] 0.002 | [4] 0.016 | [5] -0.018 | [3] -0.07

NLK (UniProt Q9UBE8)
inactive: [4] -0.109 | [3] -0.28

NEPRO (UniProt Q6NW34)
inactive: [1] -0.032 | [2] 0.16 | [5] 0.057 | [3] -0.068

NHP2 (UniProt Q9NX24)
inactive: [1] 0.084 | [2] -0.025 | [4] 0.047 | [5] -0.014 | [3] -0.167

NDRG2 isoform 6 (UniProt Q9UN36)
inactive: [4] 0.007 | [5] 0.017

NDUFB1 (UniProt O75438)
inactive: [1] 0.016 | [2] 0.029 | [4] 0.022 | [5] -0.063 | [3] 0.06

NDUFB6 (UniProt O95139)
inactive: [1] 0.034 | [2] -0.061 | [4] 0.009 | [5] -0.04 | [3] -0.077

NEK4 (UniProt P51957)
inactive: [4] 0.128

NEK5 (UniProt Q6P3R8)
inactive: [4] 0.079 | [5] -0.293 | [3] 0.082

NKIRAS1 (UniProt Q9NYS0)
inactive: [4] 0.247 | [5] -0.057 | [3] -0.103

NDUFS8 (UniProt O00217)
inactive: [1] -0.018 | [2] -0.016 | [4] 0.058 | [5] 0.02 | [3] 0.064

2 entries drawn at random from the list so far, as already listed:
NHEJ1 (UniProt Q9H9Q4)
inactive: [1] 0.028 | [2] -0.016 | [4] -0.075 | [5] -0.062 | [3] 0.092

NFAT5 isoform 5 (UniProt O94916)
inactive: [1] 0.12 | [2] -0.028 | [4] 0.009 | [5] -0.02 | [3] -0.007

(next part)

NHLRC3 (UniProt Q5JS37)
inactive: [4] 0.066 | [5] -0.069 | [3] -0.131

NKRF isoform 2 (UniProt O15226)
inactive: [4] 0.003 | [5] -0.004 | [3] 0.045

NDUFB7 (UniProt P17568)
inactive: [1] 0.014 | [2] 0.037 | [4] 0.007 | [5] -0.043 | [3] 0.025

NFYC isoform 3 (UniProt Q13952)
inactive: [5] -0.022

NFRKB isoform 2 (UniProt Q6P4R8)
inactive: [3] -0.022

NET1 (UniProt Q7Z628)
inactive: [4] -0.019

NIBAN1 (UniProt Q9BZQ8)
inactive: [1] 0.018 | [2] -0.009 | [4] 0.035 | [5] 0.037 | [3] 0.044

NDUFA7 (UniProt M0R0N0)
inactive: [1] -0.084 | [2] 0.041 | [3] -0.703

NKX2-2 (UniProt O95096)
inactive: [1] -0.046 | [2] 0.094 | [4] 0.053 | [3] -0.297

NIPA1 (UniProt Q7RTP0)
inactive: [1] -0.095 | [2] 0.035 | [4] -0.05 | [3] -0.002

NDRG2 (UniProt Q9UN36)
inactive: [1] 0.029 | [2] -0.028 | [4] -0.003 | [5] -0.02 | [3] 0.002

NFATC2 (UniProt Q13469)
inactive: [1] 0.027 | [2] 0.073 | [4] 0.064 | [5] 0.031 | [3] -0.1
